Article PMC7660911

By UniProt entry, the sequences of proteins in these tests, tags left out. Where a name states a change or a piece, a line headed by the entry shows the natural chain unless it says otherwise.
UniProt P40337: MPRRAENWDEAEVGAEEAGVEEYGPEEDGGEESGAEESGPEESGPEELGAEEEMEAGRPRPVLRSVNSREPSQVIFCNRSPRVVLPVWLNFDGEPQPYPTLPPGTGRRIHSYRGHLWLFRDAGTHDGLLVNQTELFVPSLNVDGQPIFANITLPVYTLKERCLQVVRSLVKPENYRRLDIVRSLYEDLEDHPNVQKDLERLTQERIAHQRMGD

Assays:
[1] = molecular target: GFP-pVHL213 expressed in fission yeast (human) (UniProt P40337); test: affinity purification with mass spectrometry; GFP-Trap MA beads on whole cell lysates of fission yeast expressing GFP-pVHL213 or GFP (20 mM Tris HCl pH 7.5, 150 mM NaCl, 2 mM EDTA, 0.5% Nonidet P40), 90 min at 4 C; on-bead digestion, LC-MS/MS
[2] = molecular target: pVHL213-BirA(R118G)-HA fusion protein (human) (UniProt P40337); test: proximity labelling; BioID with mass spectrometry: VHL-BirA(R118G)-HA baits expressed in HEK293 cells, biotin in the medium from 4 to 24 h after transfection; RIPA lysate; biotinylated proteins captured on streptavidin-Sepharose beads; on-bead digestion, LC-MS/MS, LFQ intensities
[3] = molecular target: pVHL172-BirA(R118G)-HA fusion protein (human) (UniProt P40337); test: as above

binding [1] | binding [2] | binding [3] | Binder
binds | – | – | Pfd5 (fission yeast prefoldin subunit 5) (protein, UniProt O94307 1-154) MAEGNKAVDLTSLSLEQLSEVIKQLDSELEYLSTSYGQLGRAQLKFRECLANVNDAVRAENDGKEVLVPLTSSLYVPGKLNLGNSKLLVDIGTGYYVEKSAGEATEYYKRKCEYLASSIENLNNAIDAKSVQIRAVQNIMQQKATATTAATKSS
– | binds | binds | T-complex protein 1 subunit beta (protein, UniProt P78371 1-535) MASLSLAPVNIFKAGADEERAETARLTSFIGAIAIGDLVKSTLGPKGMDKILLSSGRDASLMVTNDGATILKNIGVDNPAAKVLVDMSRVQDDEVGDGTTSVTVLAAELLREAESLIAKKIHPQTIIAGWREATKAAREALLSSAVDHGSDEVKFRQDLMNIAGTTLSSKLLTHHKDHFTKLAVEAVLRLKGSGNLEAIHIIKKLGGSLADSYLDEGFLLDKKIGVNQPKRIENAKILIANTGMDTDKIKIFGSRVRVDSTAKVAEIEHAEKEKMKEKVERILKHGINCFINRQLIYNYPEQLFGAAGVMAIEHADFAGVERLALVTGGEIASTFDHPELVKLGSCKLIEEVMIGEDKLIHFSGVALGEACTIVLRGATQQILDEAERSLHDALCVLAQTVKDSRTVYGGGCSEMLMAHAVTQLANRTPGKEAVAMESYAKALRMLPTIIADNAGYDSADLVAQLRAAHSEGNTTAGLDMREGTIGDMAILGITESFQVKRQVLLSAAEAAEVILRVDNIIKAAPRKRVPDHHPC
binds | – | – | Mdj1 (protein, UniProt P87239 67-528) NFSYHARCFHATRAVWEMTDPYKTLGVSKSASASEIKSAYYKLAKQYHPDANPDKAAQDKFVEIKQAYEVLQDPKKKKAFDTYGAGAFKNGEFTGGDFEGFQNGFAGASSFSSGFPGFNFEDLFGFSSRGPQARRNTSFDVFVGEDIEASITIDFMEAVRGAKKDLSYSVSSTCSSCHGSGLQPGSHKSTCFACKGTGQRLHFIPPSFHMQTTCDSCGGTGTTIPPNSACRSCMGSGTVRERKTVSIDIPPGIDDNTVLRVMGAGNDASTAKGGPNAKSRPGDLFATIHVRKHPFFVREGTNVTYNAKIPMTTAALGGTLRVPTLTGNVDLRVSPGTSTGDRITMAGKGIRKVNTSRYGNFYVNFEVTIPKILSPHERSLLEQLADALNDSTARRTQSSPSGTNSSTSTSSTSSKHSTGISTEPTTGEENKQDGSVGGFFKRAFRRLHPDEDQNPKKDESSS

Results are given in words; binding and its absence hold for the method and conditions named. Binding seen in cells or lysates may run through a third protein. A yes stands for co-enrichment or nearness to the bait. Other partners may have been found.
